According to PMC7827474, “DnaJ Proteins Regulate WUS Expression in Shoot Apical Meristem of Arabidopsis”:
Construct, isoform or probe ends are uncertain for at least one entry. For some assays here: A negative result means that nothing was seen under these conditions. For some assays here: Tags and fusion partners may be left off the protein sequences shown.

What was measured:
[1] = tested on: MBP:WUS + MBP:SDJ1; assay: EMSA; settings: more efficient than WUS alone; EMSA: 10 mM HEPES pH 7.8, 20 mM KCl, 1 mM MgCl2, 7.5% glycerol, 0.5% Triton-100, 300 ng carrier DNA, 0.02% BSA, 10 uL, 22 C, 30 min; recombinant protein; protein details: MBP,MBP
[2] = molecular target: T1, MBP:WUS (Arabidopsis thaliana) (UniProt Q9SB92); assay: EMSA; settings: EMSA: 10 mM HEPES pH 7.8, 20 mM KCl, 1 mM MgCl2, 7.5% glycerol, 0.5% Triton-100, 300 ng carrier DNA, 0.02% BSA, 10 uL, 22 C, 30 min; recombinant protein; protein details: MBP
T1 sequence (looked up, limits assumed): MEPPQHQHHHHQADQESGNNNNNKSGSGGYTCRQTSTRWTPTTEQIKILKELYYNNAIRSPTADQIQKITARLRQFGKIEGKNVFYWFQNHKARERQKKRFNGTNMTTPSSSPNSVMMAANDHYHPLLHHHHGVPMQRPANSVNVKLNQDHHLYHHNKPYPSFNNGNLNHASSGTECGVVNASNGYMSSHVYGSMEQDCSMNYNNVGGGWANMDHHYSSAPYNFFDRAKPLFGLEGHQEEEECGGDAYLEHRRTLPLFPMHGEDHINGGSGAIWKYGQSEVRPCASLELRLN

Sequence: CTAGAATGAATAATAAAAAAAGTGAAAACCGTTTGATCATAA (double strand) [WUS promoter probe (pWUS)]
- binding result [1]: binds

Sequence: CTAGAATGAACCCCAAAAAAAGTGAAAACCGTTTGATCATAA (double strand) [WUS mutant probe (pWUStu, TAAT to CCCC)]
- binding result [2]: no binding
